From patent US20240150460A1 (SHENGHE CHINA BIOPHARMACEUTICAL, published 2024)
Results are given in words; binding and its absence hold for the method and conditions named. Some results given as binding are weak or reduced against the parent protein; the word gives no strength.

T1: NKp30 on NK cells (UniProt O14931 19-201, limits assumed)
T1 sequence (looked up): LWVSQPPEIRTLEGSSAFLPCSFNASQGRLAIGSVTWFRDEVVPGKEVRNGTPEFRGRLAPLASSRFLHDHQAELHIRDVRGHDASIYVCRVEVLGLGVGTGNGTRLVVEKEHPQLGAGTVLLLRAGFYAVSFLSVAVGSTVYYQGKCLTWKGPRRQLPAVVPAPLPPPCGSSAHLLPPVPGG


Molecular target: T1, NKp30 on NK cells
Test: flow cytometry on NK cells, antibody 40 µg/mL diluted 1:3, goat anti-human Fc-FITC, MFI (Example 7)

binding | Binder
binds | antibody 21 (antibody, V domains shown, expressed in CHO cells) VH: EVQLVESGGGLVQPGGSLRLSCAASGSTYAFYNMGWFRQRPGKEREFAAAILWGRSGVYTTYADSVKGRFTISRDNAQNTVYLQMNSLKPEDTAVYYCAAGLGTMRANEYDYWGQGTQVTVSS
binds | antibody 23 (antibody, V domains shown, expressed in CHO cells; also called chimeric antibody 23) VH: EVQLVESGGGLVQPGGSLRLSCAASGSIFSPNGIGWYRQAPGKLRELVAGITGNGLTDYADSVKGRFTISRDSAKNTVYLQMNSLKTEDTAVYYCNLLLNHAEWGQGTQVTVSS
binds | antibody 15 (antibody, V domains shown, expressed in CHO cells) VH: EVQLVESGGGSVQTGGSLRLSCAASGPTFNFYGMAWFRQAPGKEREFVASIIPGSGDTSYASSVRGRFTISEDNARNNAYLQMNTLKPEDTAVYYCAAGTGGIYSSDYPYWGQGTQVTVSS
binds | antibody 7 (antibody, V domains shown, expressed in CHO cells) VH: EVQVVESGGGLVQAGGSLRLSCAASGRTFSNYNVGWFRQAPGKEREFLATISESGGSTYYADSVKGRFTISRDNGINMVYLQMSSLKPEDTAVYYCAESRIFSFSYADGRGYAYWGQGTQVTVFS
binds | antibody 1 (antibody, V domains shown, expressed in CHO cells) VH: QLQLVESGGGTVQTGGSLRLACVVSGPTYSFYDMGWFRRAPGKEREFVAAVTASGDTTIYADSVKGRFTIARDNAKNTVYLQMNSLKSEDTGAYYCAAGEYSSTAATYYYWGQGTQVTVSS
binds | antibody 5 (antibody, V domains shown, expressed in CHO cells) VH: EVQVVESGGGLVQAGGSLTLSCAASGRPFSTFPTSMGWFRQAPGKEREFVAAISESGLNTYYRDSVKGRFGISRDNAKNTVYLQMNTLTAEDTAVYFCAAAPGYMTTDSQYYLGNKYQYWGQGTQVTVSS
binds | antibody 3 (antibody, V domains shown, expressed in CHO cells) VH: QLQLVESGGGLVQTGDSTKLSCTASGRSFSINDMGWYRQAPGKLRELVAGITSGGSTNYADSVKGRFTISRDNAKNTVYLQMNSLKPEDTAVYYCNVLGWPDFGSWGQGTQVTVSS
binds | antibody 6 (antibody, V domains shown, expressed in CHO cells) VH: QVQLVESGGGLVQPGGSLRLSCAASRAIFPEYSIAWFRQAPGKEREGVALVSRIGDRVDYADSVKGRFTISRDNAKNTVYLQMNSLKPEDTAVYHCAAGQLSSSTYYGDEYVYWGQGTQVTVSS
binds | antibody 18 (antibody, V domains shown, expressed in CHO cells; also called chimeric antibody 18) VH: EVQLVESGGGLVQPGGSLRLSCAAAGIRFSIANMGWYRQAPGKLHEMVAGITSDGFTNYADSVKGRFTISRDNAKNTVYLQMNNLKPEDTAVYYCDSFPTRHYWGQGTQVTVSS
binds | antibody 13 (antibody, V domains shown, expressed in CHO cells) VH: EVQLVESGGGLVQPGGSLRLSCAASGGIFGSTHMGWYRQAPGKLREMVAGITSTGNHRNVADSVKGRFTISKDNAKNTLYLQMNSLKPEDTAVYYCNSFPDQVFNWGQGTQVTVSS
binds | antibody 8 (antibody, V domains shown, expressed in CHO cells) VH: QVQLVESGGGLVQTGDSLRLSCAASGRTYDNYAMGWFRQAPGKEREFVAAFSQNGGRTDYADSVKGRFAISDDRSTVHLDMNSLLPEDTAVYYCAARPPAYFSNAVYSKVDEYRYWGQGTQVTVSS
binds | antibody 11 (antibody, V domains shown, expressed in CHO cells) VH: EVQLVESGGGLVQPGESLRLSCVASGGDFRFKSMGWYRQAPGKLRELVAGITTGGVTDYADSVKGRFTISRDNANKAVWLQMNRLKPDDTAVYDCNTLGAAAYDWGQGTQVTVSS
binds | antibody 10 (antibody, V domains shown, expressed in CHO cells; also called chimeric antibody 10) VH: QVQLVESGGGLVQPGGSLTLSCAVSGITFSRSVMGWFRQAPGKLRELVAGITSDDNTDYADSVKGRFTISRDNAKNTVYLQMNSLKPEDTAVYYCNILPDSRLGWGQGTQVTVSS
binds | antibody 12 (antibody, V domains shown, expressed in CHO cells) VH: EVQLVESGGDLVQPGGSLRLSCAAFGSSFSIDMMGWYRQVPGKQRELVAGITKGGFADYADSVKGRFTISMDAAKNTVYLQMNSLKPEDTAVYYCNTLPTHSDWGQGTQVTVSS
binds | antibody 19 (antibody, V domains shown, expressed in CHO cells) VH: EVQVVESGGDLVQPGGSLRLSCAAFGSSFSIDMMGWYRQVPGKQRELVAGITKGGFADYADSVKGRFTISMDAAKNTVYLQMNSLKPEDTAVYYCNTLPTHSDWGQGTQVTVSS
binds | antibody 17 (antibody, V domains shown, expressed in CHO cells) VH: QLQLVESGGGLVQPGGSLRLSCAASGSIDSINAMGWYRQAPGKLRELVAGITRGGDVNYADSVKGRFTISRVDARNTVTVYLQMNSLKPEDTAVYYCNNLGFPSDWAQGTQVTVSS
binds | antibody 16 (antibody, V domains shown, expressed in CHO cells) VH: EVQLVESGGGLVQAGGSLRLSCAASGISLITYNMGWYRQAPGKLRELVAGITTGGITDYTDSVKGRFTISRDNAKNTLYLQMNSLKPEDTAVYYCDTLGMANYWGQGTQVTVSS
binds | antibody 9 (antibody, V domains shown, expressed in CHO cells) VH: QVQLVESGGGSVQAGGSLRLSCAASGRTFSDYVMGWFRQAPGKEREFVGTITRIGGMPYYADFVKGRFTISRDYAKNAGYLQLNNLKPEDTALYYCALDLRLRLGVTPREYDYWGQGTQVTVSS
binds | antibody 22 (antibody, V domains shown, expressed in CHO cells) VH: QVQLVESGGGLVQPGGSLRLSCAASGSIFSANVMGWYRQAPGKLRELVAGMHSGGSANYADSVKGRFTISKDNAKNTMYLQMNSLKPEDTAVYYCNFGLGFDGHDYWGQGTQVTVSA
binds | antibody 20 (antibody, V domains shown, expressed in CHO cells) VH: EVQLVESGGGLVQPGGSLRLSCAASGSAFSIEPWGWYRQAPGQLRELVAGITSDDKTDYADSVKDRFTISRDNAKNTVFLQMNSLKPEDTAVYYCNVLGWPRDDYWGQGTQVTVSS
binds | antibody 4 (antibody, V domains shown, expressed in CHO cells) VH: QVQLVESGGGLVQPGGSLRLSCAASGSIFKINAMGWYRQAPGKLRELVAGITSGGSTNYADSVKGRFTISRDNAKNTLYLQMNSLKPDDTAVYYCNQLGFPQYWGQGTQVTVSS
binds | antibody 2 (antibody, V domains shown, expressed in CHO cells) VH: QVQLVESGGGLVQPGGSLRLSCAASGSIFSVNEMGWYRQAPGKLRELVAAITSDGTTAYADSVKGRFTISRDNAKNTVYLQMNSLKPEDTAVYDCNTWPEARGDWGQGTQVTVSS
binds | antibody 14 (antibody, V domains shown, expressed in CHO cells) VH: QLQLVESGGGLVQPGGSLRLSCAVSASIFSVNEMGWYRQAPGKLRELVAAITSDGTTAYADSVKGRFTISRDNAKNTVYLQMNSLKPEDTAVYDCNTWPQARGDWGQGTQVTVSS
